PubChem BioAssay AID686938 | Drosophila RNAi Screening Center | 2013

Screen: 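Looking for CRAC channel components and the factors controlling them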 (primary screen)
Cell system: Drosophila S2R+ cells
Reagents: long dsRNA against Drosophila genes, about 0.25 µg dsRNA per well, roughly 10,000 cells
Duration: 5 days of knock-down before the calcium assay
Challenge: thapsigargin (SERCA pump blocker) to empty calcium stores; entry signal taken 4 min after adding it
Detection: 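Duplicate raw fluo-4 intensities per well from a plate reader, at rest and four minutes after thapsigargin emptied calcium stores; entry-to-rest ratio filled for only some wells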
Reading the numbers: calcium entry signal: higher = stronger calcium signal after store depletion; resting calcium signal: higher = higher resting calcium signal
Units: calcium entry signal in fluorescence units; resting calcium signal in fluorescence units
Call rule: 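Called when the plate z-score of the entry-to-rest ratio, mean of duplicates, falls below −3; wells with low overall dye signal (Fmax z below −2) or more than five off-targets excluded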
Calls: active = strongly reduced calcium entry; inactive = no strong reduction
The deposit covers about 23,000 reagents; shown is a random part of those that have a named target and a result. In the full data, 75 (0.33%) were called active. 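Raw plate signals without normalisation; calls rest on plate z-scores that were not deposited; ratio present for only 364 wells.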 Not given: the dose of the treatment.

Gr22a (Gustatory receptor 22a) [DRSC22283] | calcium entry signal, replicate 1: 3.26e7; calcium entry signal, replicate 2: 5.88e7; resting calcium signal, replicate 1: 1.65e7; resting calcium signal, replicate 2: 2.95e7; call: inactive
CG17994 [DRSC04877] | calcium entry signal, replicate 1: 4.91e7; calcium entry signal, replicate 2: 4.84e7; resting calcium signal, replicate 1: 2.31e7; resting calcium signal, replicate 2: 2.35e7; call: inactive
Drep4 (DNA fragmentation factor-related protein 4) [DRSC03408] | calcium entry signal, replicate 1: 2.99e7; calcium entry signal, replicate 2: 1.78e7; resting calcium signal, replicate 1: 1.58e7; resting calcium signal, replicate 2: 8.61e6; call: inactive
CG15546 [DRSC15084] | calcium entry signal, replicate 1: 4.02e7; calcium entry signal, replicate 2: 6.09e7; resting calcium signal, replicate 1: 1.98e7; resting calcium signal, replicate 2: 2.49e7; call: inactive
CG15546 [DRSC22831] | calcium entry signal, replicate 1: 2.88e7; calcium entry signal, replicate 2: 4.47e7; resting calcium signal, replicate 1: 1.33e7; resting calcium signal, replicate 2: 2.02e7; call: inactive
CG6484 [DRSC06991] | calcium entry signal, replicate 1: 2.99e7; calcium entry signal, replicate 2: 3.09e7; resting calcium signal, replicate 1: 1.48e7; resting calcium signal, replicate 2: 1.55e7; call: inactive
CG4229 [DRSC10407] | calcium entry signal, replicate 1: 3.04e7; calcium entry signal, replicate 2: 3.48e7; resting calcium signal, replicate 1: 1.32e7; resting calcium signal, replicate 2: 2.47e7; call: inactive
dac (dachshund) [DRSC03518] | calcium entry signal, replicate 1: 4.46e7; calcium entry signal, replicate 2: 3.58e7; resting calcium signal, replicate 1: 2.06e7; resting calcium signal, replicate 2: 1.78e7; call: inactive
AOX1 (Aldehyde oxidase 1) [DRSC15339] | calcium entry signal, replicate 1: 3.49e7; calcium entry signal, replicate 2: 4.62e7; resting calcium signal, replicate 1: 1.62e7; resting calcium signal, replicate 2: 2.01e7; call: inactive
Rpn8 (Regulatory particle non-ATPase 8) [DRSC04624] | calcium entry signal, replicate 1: 2.12e7; calcium entry signal, replicate 2: 2.29e7; resting calcium signal, replicate 1: 1.62e7; resting calcium signal, replicate 2: 1.52e7; call: inactive
babo (baboon) [DRSC07581] | calcium entry signal, replicate 1: 2.58e7; calcium entry signal, replicate 2: 3.91e7; resting calcium signal, replicate 1: 1.28e7; resting calcium signal, replicate 2: 1.69e7; call: inactive
CG8646 [DRSC07230] | calcium entry signal, replicate 1: 3.33e7; calcium entry signal, replicate 2: 4.92e7; resting calcium signal, replicate 1: 1.88e7; resting calcium signal, replicate 2: 2.18e7; call: inactive

An excerpt from above, reduced to “calcium entry signal, replicate 1”:
dac (dachshund) [DRSC03518]	4.46e7
AOX1 (Aldehyde oxidase 1) [DRSC15339]	3.49e7
